Laboratory results: PubChem BioAssay AID1259279 (Sanger Institute, 2017)
Here is a random part of 794 reagents. 11 of them (1.4%) were called active. 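Calls reflect knock-down alone in the vehicle arm, not drug synergy.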 No viability above 1 is reported: the scale is capped. Not stated in the record: the amount of reagent, the time to read-out.

- Test: 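Find kinases whose loss works with colorectal cancer drugs to kill cells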 (primary screen)
- Cells: LS180 human colorectal cancer cells
- Reagent: siRNA pool against human genes
- Conditions: anchor drug BYL719 at 1 µM, cetuximab at 5 µg/ml or trametinib at 10 nM, or DMSO vehicle only
- Detection: 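Viability as a fraction of non-targeting control and as a replicate-averaged robust z-score, with separate synergy scores for BYL719, cetuximab and trametinib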
- Scale: viability z-score, no drug: higher = more viable cells after knock-down; viability, no drug: higher = more viable cells; synergy score with BYL719 and synergy score with cetuximab and synergy score with trametinib: higher = stronger synthetic lethal synergy with drug
- Call rule: 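a knock-down is called active, meaning essential, if its viability z-score in vehicle alone falls below -3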
- Calls: active = essential (knock-down alone cuts viability); inactive = no change without drug

gene symbol | viability z-score, no drug | viability, no drug (fraction) | synergy score with BYL719 | synergy score with cetuximab | synergy score with trametinib | outcome
CDADC1 (GeneID 81602) | -0.705 | 0.829 | 0.00606 | -0.106 | 0 | inactive
PANK3 (GeneID 79646) | 0.86 | 1 | -0.0862 | -0.166 | -0.0847 | inactive
CERT1 (GeneID 10087) | 0.86 | 1 | -0.0495 | -0.108 | -0.0336 | inactive
NME2 (GeneID 4831) | 0.55 | 0.966 | -0.139 | -0.194 | 0.0415 | inactive
EPHB1 (GeneID 2047) | 0.84 | 0.998 | 0.0311 | -0.0426 | 0.1 | inactive
PAPSS2 (GeneID 9060) | 0.734 | 0.986 | -0.0441 | -0.0487 | -0.0628 | inactive
MAP3K15 (GeneID 389840) | 0.86 | 1 | -0.00375 | -0.0487 | 0.121 | inactive
DLG2 (GeneID 1740) | 0.86 | 1 | -0.155 | -0.121 | -0.0878 | inactive
CIB2 (GeneID 10518) | -1.23 | 0.772 | -0.155 | -0.0554 | -0.158 | inactive
FCSK (GeneID 197258) | 0.438 | 0.954 | -0.0127 | 0.0225 | 0.0475 | inactive
PIK3C2A (GeneID 5286) | -2.94 | 0.586 | -0.158 | -0.0483 | -0.0271 | inactive
SRP72 (GeneID 6731) | -1.75 | 0.715 | -0.225 | -0.103 | -0.147 | inactive
PIK3CG (GeneID 5294) | -0.79 | 0.82 | -0.0137 | 0.00669 | -0.0379 | inactive
MARK3 (GeneID 4140) | -0.529 | 0.849 | 0.00499 | 0.0911 | 0.181 | inactive
STK35 (GeneID 140901) | 0.248 | 0.933 | -0.148 | -0.104 | 0.0165 | inactive
PTPRU (GeneID 10076) | 0.033 | 0.91 | 0.183 | -0.0467 | 0.0443 | inactive
NME5 (GeneID 8382) | 0.86 | 1 | -0.0501 | -0.1 | -0.118 | inactive
ADK (GeneID 132) | 0.86 | 1 | -0.047 | 0.097 | -0.0202 | inactive
PKDCC (GeneID 91461) | 0.86 | 1 | -0.0215 | 0.0552 | 0.126 | inactive
MAPK4 (GeneID 5596) | -0.962 | 0.801 | 0.0384 | -0.0793 | 0.0805 | inactive
BCKDK (GeneID 10295) | -0.0475 | 0.901 | -0.0146 | -0.108 | -0.0408 | inactive
BRD3 (GeneID 8019) | 0.86 | 1 | -0.166 | -0.0771 | 0.0504 | inactive
BRDT (GeneID 676) | 0.86 | 1 | -0.103 | -0.0827 | 0.0178 | inactive
LYN (GeneID 4067) | 0.0298 | 0.909 | -0.116 | 0.0861 | 0.0354 | inactive
CDKN2D (GeneID 1032) | -1.67 | 0.724 | -0.0211 | -0.123 | -0.042 | inactive
ABL2 (GeneID 27) | 0.86 | 1 | 0.0363 | -0.0268 | -0.0948 | inactive
PRKG2 (GeneID 5593) | 0.86 | 1 | -0.0258 | -0.07 | 0.146 | inactive
EPHA6 (GeneID 285220) | -1.09 | 0.787 | 0.0768 | 0.0596 | 0.123 | inactive
RSKR (GeneID 124923) | 0.456 | 0.956 | -0.141 | -0.0643 | -0.124 | inactive
RELA (GeneID 5970) | -0.757 | 0.824 | -0.0451 | -0.0648 | -0.0314 | inactive
CAD (GeneID 790) | 0.86 | 1 | -0.176 | -0.166 | -0.163 | inactive
DAPK3 (GeneID 1613) | 0.391 | 0.949 | -0.075 | 0.0011 | 0.008 | inactive
CALM1 (GeneID 801) | -0.976 | 0.8 | -0.133 | -0.122 | -0.0917 | inactive
CLSPN (GeneID 63967) | -2.42 | 0.642 | -0.142 | -0.0855 | -0.0701 | inactive
STYK1 (GeneID 55359) | -0.129 | 0.892 | 0.0123 | -0.183 | -0.00623 | inactive
EPHB2 (GeneID 2048) | 0.84 | 0.998 | -0.0549 | -0.157 | -0.00104 | inactive
KSR2 (GeneID 283455) | 0.533 | 0.964 | -0.014 | 0.0208 | 0.0065 | inactive
KMT2B (GeneID 9757) | -0.282 | 0.875 | -0.134 | -0.0261 | -0.0685 | inactive
TAB1 (GeneID 10454) | 0.849 | 0.999 | 0.0108 | -0.167 | 0.0791 | inactive
NTRK2 (GeneID 4915) | 0.86 | 1 | -0.101 | -0.0736 | -0.122 | inactive
FLT4 (GeneID 2324) | 0.86 | 1 | 0.00778 | 0.0803 | 0.0215 | inactive
IKBKG (GeneID 8517) | 0.622 | 0.974 | -0.043 | 0.0283 | 0.0858 | inactive
GK (GeneID 2710) | 0.373 | 0.947 | 0.0114 | -0.152 | -0.138 | inactive
CSNK1G3 (GeneID 1456) | 0.86 | 1 | -0.0555 | 0.0716 | -0.171 | inactive
TBK1 (GeneID 29110) | 0.86 | 1 | 0.0797 | 0.0484 | -0.012 | inactive
KIT (GeneID 3815) | 0.368 | 0.946 | 0.0181 | -0.107 | -0.103 | inactive
CDK6 (GeneID 1021) | 0.86 | 1 | 0.0858 | 0.101 | -0.0184 | inactive
DGKD (GeneID 8527) | 0.86 | 1 | -0.0535 | -0.0129 | 0.0114 | inactive
TRIB1 (GeneID 10221) | 0.00907 | 0.907 | -0.165 | -0.22 | -0.119 | inactive
MAPK6 (GeneID 5597) | 0.0601 | 0.913 | 0.0755 | -0.0316 | -0.135 | inactive
BMPR2 (GeneID 659) | -0.3 | 0.874 | 0.0537 | -0.0463 | -0.00431 | inactive
PKMYT1 (GeneID 9088) | 0.146 | 0.922 | -0.0438 | -0.0733 | 0.13 | inactive
PHKA2 (GeneID 5256) | 0.86 | 1 | -0.035 | -0.0247 | -0.0483 | inactive
PASK (GeneID 23178) | 0.299 | 0.939 | -0.105 | -0.0617 | -0.18 | inactive
ZAP70 (GeneID 7535) | -0.411 | 0.861 | -0.0849 | -0.0542 | 0.118 | inactive
CKM (GeneID 1158) | 0.86 | 1 | 0.0154 | -0.0934 | 0.00601 | inactive
BLK (GeneID 640) | 0.688 | 0.981 | -0.0518 | -0.117 | -0.124 | inactive
GRK1 (GeneID 6011) | 0.385 | 0.948 | -0.0866 | -0.0427 | -0.0898 | inactive
MED12 (GeneID 9968) | 0.0704 | 0.914 | -0.108 | -0.141 | -0.0816 | inactive
STK36 (GeneID 27148) | 0.86 | 1 | -0.0514 | 0.0629 | 0.3 | inactive
MAP2K2 (GeneID 5605) | 0.0786 | 0.915 | -0.0825 | -0.167 | -0.0537 | inactive
BRD2 (GeneID 6046) | 0.86 | 1 | -0.0747 | -0.166 | -0.121 | inactive
TWF2 (GeneID 11344) | -0.106 | 0.895 | 0.0683 | -0.0693 | 0.127 | inactive
